At least one structure is not confirmed: it was looked up by name or label, or the drawing left a doubt.
Key:
Assay type in all cases: cell-based
Details in all cases: Example 1, concentrations of Table 1
[1] = test system: bovine articular cartilage explants; assay: PGE2 release from cytokine-stimulated bovine cartilage explants (ELISA)
Protocol: (§1) Full thickness cartilage was obtained from the metacarpophalangeal joints of approximately 6 months old calves (from a local slaughterhouse). Cartilage punches (4 mm) were taken from the cartilage and placed in culture dishes with culture medium (DMEM+FCS, penicillin, streptomycin and ascorbic acid). Cartilage explants were weighed and explants between about 5 and about 15 mg were divided into a 96-well culture plate with 1 explant per well and 200 μL culture medium. Cartilage degradation was induced by addition of TNFα, IL-1α, and OSM at 10 ng/mL each to the culture medium. Test agents were then added at different concentrations. During three weeks of culture, the culture medium and the test compounds were refreshed once weekly. In addition fresh calcitonin was added twice weekly to the cartilage explants. Culture medium and cartilage explants were stored at −20° C. until analysis. Each culture condition was cultured in four-fold and the entire experiment was performed on cartilage from three different paws. The different culture conditions are listed below in Table 1.
(§2) Outcome parameters included (i) CTX-II in the culture medium as a measure of collagen degradation, (ii) GAG in the culture medium and cartilage explant as a measure of proteoglycan degradation, (iii) prostaglandin E2 (PGE2) measured by ELISA in the culture medium as a measure of inflammation, and (iv) general MMP activity in the culture medium. Not all outcome parameters were determined for each of the culture conditions.
The prostaglandin E2 release was measured as PGE2 release per mg cartilage. PGE2 was determined in the pooled medium using a PGE2 ELISA from R&D Systems. This value was normalized against the control condition of each donor to correct for donor variation. The basal release of unstimulated cartilage is 11% (p<0.0 1) when the stimulated (IL-1a, TNFα and OSM) control is set to 100%.
(§3) Full thickness cartilage was obtained from the metacarpophalangeal joints of approximately 6 months old calves (from a local slaughterhouse). […]

[2] = test system: bovine articular cartilage explants; assay: Collagen (CTX-II) release from cytokine-stimulated bovine cartilage explants (CTX-II ELISA)
Protocol: as §1, §2
Collagen release was measured as CTX-II release per mg cartilage. Collagen was measured in the pooled medium using the CTXII ELISA assay (Pre-clinical Cartilaps®, Nordic Bioscience).
Full thickness cartilage was obtained from the metacarpophalangeal joints of approximately 6 months old calves (from a local slaughterhouse). Cartilage punches (4 mm) were taken from the cartilage and placed in culture dishes with culture medium (DMEM+FCS, penicillin, streptomycin and ascorbic acid). […]

[3] = test system: bovine articular cartilage explants; assay: Proteoglycan (GAG) release from cytokine-stimulated bovine cartilage explants (Blyscan assay)
Protocol: as §1, §2
The proteoglycan release is measured as GAG release per mg cartilage. Proteoglycan (GAG) content was determined in the pooled medium and explants using the Blyscan® colorimetric assay (Biocolor, Belfast, UK). This value is normalized against the control condition of each donor to correct for donor variation. The basal release of unstimulated cartilage is 36% (p<0.05) when the stimulated (IL-1a, TNFα and OSM) control is set to 100%.
as §3

Row | Compound | effect on PGE2 release (in words) [1] | effect on collagen release (in words) [2] | effect on proteoglycan release (in words) [3]
1 | C[C@@H]1C[C@H]2[C@@H]3CCC4=CC(=O)C=C[C@]4(C)[C@@]3(F)[C@@H](O)C[C@]2(C)[C@@]1(O)C(=O)CO [Dexamethasone] | inhibited all outcome parameters | inhibited all outcome parameters | inhibited all outcome parameters
2 | C[C@H]1c2cccc(O)c2C(=O)C2=C(O)[C@]3(O)C(=O)C(C(N)=O)=C(O)[C@@H](N(C)C)[C@@H]3[C@@H](O)[C@@H]21 [Doxycycline] | inhibited | inhibited | slight reducing effect
3 | Cc1ccc(-c2cc(C(F)(F)F)nn2-c2ccc(S(N)(=O)=O)cc2)cc1 [Celebrex ® (celecoxib), celecoxib] | inhibited | small reducing effect | small reducing effect

Reference: US9220758B2, “Calcitonin products and therapies for treating inflammatory or degenerative diseases” (UGP Therapeutics, Inc., priority 2010, dated 2015)
